# The list shows a part of the results. Repeats in this data set agree poorly, so a single value says little.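 A first-round screen of about ten thousand compounds sought those raising reporter output, using human embryonic kidney cells briefly transfected with a plasmid carrying a Renilla luciferase gene driven by the HSV-TK promoter.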
# Test system: HEK 293FT
# Assay: log relative Renilla luciferase luminescence (reporter expression vs reference, reference not stated) (log (base not stated)); higher = higher recombinant reporter expression
# Details: 10 µM; time after transfection 48 h
# Description: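 HEK 293FT cells transiently transfected with pRL-TK (Renilla luciferase) were treated with compounds at 10 uM and luminescence was read about 42 h later. Values are log relative Renilla luminescence (log base and reference not stated). Single-pass screen; ICCB Known Bioactives library.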
row,Compound,log
1,CCCC[C@H]1C(=O)O[C@H](C)[C@H](NC(=O)c2cccc(NC=O)c2OC)C(=O)O[C@@H](C)[C@@H]1OC(=O)CC(C)C [2-Methoxyantimycin A3],-0.136
2,"CCCCC/C=C\CC1OC1CCCCCCCC(=O)O (stereo not given) [Leukotoxin A (9,10-EODE)]",-0.197
3,Cc1c(C(=O)c2cccc3ccccc23)c2cccc3c2n1[C@H](CN1CCOCC1)CO3,-0.167
4,N#CC(C#N)=Cc1ccc(O)cc1 [Tyrphostin-8],0.255
5,CCCCCCCCCCCCCCCCOC[C@@H](O)COP(=O)([O-])OCC[N+](C)(C)C,-0.179
6,CC1=C(CC/C(C)=C/CCC2=CC[C@H](C3=CC(=O)O[C@H]3O)O[C@H]2O)C(C)(C)CCC1 [Manoalide],0.00897
7,CCCCCc1cc(O)c2c(c1)OC(C)(C)C1CCC(C(=O)O)=CC21 (stereo not given) [Tetrahydrocannabinol-7-oic acid],-0.00642
8,c1ccc(C2CC2)c(OCC2=NCCN2)c1 [Cirazoline],-0.0772
9,CCCCCCCCCCCCCCCCOC[C@H](COP(=O)([O-])OCC[N+](C)(C)C)OC(C)=O,-0.129
10,NC1CCc2cc(O)c(O)cc2C1 (stereo not given),-0.25
11,C#CCN(C)C(C)Cc1ccccc1 (stereo not given) [Deprenyl],0.291
12,"CCCCC/C=C\C/C=C\C/C=C\C/C=C\CCCC(=O)NCCO [Anandamide (20:3,n-6)]",0.142
13,CCN1C[C@]2(COC)[C@H](O)C[C@H](OC)[C@@]34[C@@H]5C[C@@]6(O)[C@H](OC(=O)c7ccccc7)[C@@H]5[C@@](OC(C)=O)([C@@H]([C@H](OC)[C@H]23)[C@@H]14)[C@@H](O)[C@@H]6OC [Aconitine],-0.147
14,C=C1[C@@H](C)[C@H]2[C@H](Cc3ccccc3)NC(=O)[C@]23OC(=O)/C=C/[C@H](O)CCC[C@@H](C)C/C=C/[C@H]3[C@@H]1O [Cytochalasin B],-0.295
15,C=C1C(=O)O[C@@H]2C[C@@H](C)[C@@H]3C=CC(=O)[C@@]3(C)[C@@H](O)[C@H]12 [Helenalin],-0.421
16,N#CC(C#N)=Cc1ccc([N+](=O)[O-])c(O)c1 [Tyrphostin AG-126],-0.0324
17,CC(=O)C1=C(O)[C@@H]2[C@H]3c4c[nH]c5cccc(c45)C[C@H]3C(C)(C)N2C1=O [Cyclopiazonic acid],0.104
18,COc1ccc(C[C@H]2NC[C@H](O)[C@H]2OC(C)=O)cc1 [Anisomycin],-0.345
19,COC[C@H]1OC(=O)c2coc3c2[C@@]1(C)C1=C(C3=O)[C@@H]2CCC(=O)[C@@]2(C)C[C@H]1OC(C)=O [Wortmannin],-0.176
20,CN1C(=O)[C@]23CC4=CC=C[C@H](O)[C@H]4N2C(=O)[C@@]1(CO)SS3 [Gliotoxin],-1.32

row,Compound,log
1,C/C=C(/C)C(=O)O[C@H]1C(C)=C2[C@H]([C@@H]1OC(=O)CCCCCCC)[C@@](C)(OC(C)=O)C[C@H](OC(=O)CCC)[C@@]1(O)[C@H]2OC(=O)[C@@]1(C)O [Thapsigargin],-0.223
2,CCOC(=O)CN1C(=O)CC(C[C@@H](O)C2C[C@@H](C)C[C@H](C)C2=O)CC1=O (stereo not given in full) [Cycloheximide-N-ethylethanoate],-0.242
3,O[C@H]1[C@H](O)[C@@H](O)CN2CC[C@H](O)[C@H]12 [Castanospermine],-0.0751
4,"CCCCC/C=C\C/C=C\C/C=C\C/C=C\CCCC(=O)NCCO [Anandamide (20:4, n-6)]",-0.065
5,C[C@@H]1O[C@@H](O[C@H]2C[C@@H](O)[C@]3(CO)[C@H]4[C@H](O)C[C@]5(C)[C@@H](C6=CC(=O)OC6)CC[C@]5(O)[C@@H]4CC[C@]3(O)C2)[C@H](O)[C@H](O)[C@H]1O [Ouabain],-1.8
6,CCCCC/C=C\C=C\[C@H](CCCCCCCC(=O)O)OO,0.0521
7,CC[C@@]1([C@@H]2O[C@@H]([C@H]3O[C@@](O)(CO)[C@H](C)C[C@@H]3C)C[C@@H]2C)CC[C@H]([C@]2(C)CC[C@]3(C[C@H](O)[C@@H](C)[C@@H]([C@@H](C)[C@@H](OC)[C@H](C)C(=O)O)O3)O2)O1 [Monensin],-0.479
8,CC(C)[C@@H]1NC(=O)[C@H](C)OC(=O)[C@@H](C(C)C)NC(=O)[C@@H](C(C)C)OC(=O)[C@H](C(C)C)NC(=O)[C@H](C)OC(=O)[C@@H](C(C)C)NC(=O)[C@@H](C(C)C)OC(=O)[C@H](C(C)C)NC(=O)[C@H](C)OC(=O)[C@@H](C(C)C)NC(=O)[C@@H](C(C)C)OC1=O [Valinomycin],-0.64
9,COC(=O)[C@@H](N)CCCNC(=N)N[N+](=O)[O-],-0.308
10,C[C@@]12C(=O)OC(=O)[C@]1(C)[C@H]1CC[C@@H]2O1 [Cantharidin],-1.47
11,"CCCCC/C=C\C/C=C\C/C=C\C/C=C\CCCC(=O)NCCO [Anandamide (18:2,n-6)]",0.216
12,CC1(C)[C@@H](O)C[C@H]2[C@](C)(O)[C@@H]3CC[C@@H]4[C@@H](O)[C@@]3(C[C@@H](O)[C@@]21O)C[C@@]4(C)O [Grayanotoxin III],-0.00555
13,CN[C@@H]1C[C@H]2O[C@@](C)([C@@H]1OC)n1c3ccccc3c3c4c(c5c6ccccc6n2c5c31)C(=O)NC4 [Staurosporine],-1.56
14,CCCCC/C=C\C/C=C\C/C=C\C=C\[C@H](CCCC(=O)O)OO,0.0437
15,CC(C)NCC(O)c1ccc(N)c(C#N)c1 (stereo not given) [Cimaterol],-0.265
16,COc1c(C[C@@H](C)OC(=O)Oc2ccc(O)cc2)c2c3c(C[C@@H](C)OC(=O)c4ccccc4)c(OC)c(=O)c4c(O)cc(OC)c(c5c(OC)cc(O)c(c1=O)c52)c43 [Calphostin C],-0.324
17,CC(C)(C)c1cc(C=C(C#N)C#N)cc(C(C)(C)C)c1O [Tyrphostin 9],-0.421
18,COc1ccc(C(=O)O[C@H]2CC[C@@]3(C)[C@@H]4CC[C@H]5[C@]6(O)C[C@H](O)[C@@]7(O)[C@@H](CN8C[C@@H](C)CC[C@H]8[C@@]7(C)O)[C@]6(O)C[C@@]53O[C@]24O)cc1OC [Veratridine],0.192
19,C=C1[C@@H](C)[C@H]2[C@H](Cc3ccccc3)NC(=O)[C@]23[C@H](OC(C)=O)/C=C/[C@@](C)(O)C(=O)[C@@H](C)C/C=C/[C@H]3[C@@H]1O [Cytochalasin D],-0.941
20,N#Cc1nn(-c2c(Cl)cc(C(F)(F)F)cc2Cl)c(N)c1[S+]([O-])C(F)(F)F (stereo not given) [Fipronil],0.0729

# Nothing new here: entries from further up.
row,Compound,log
7,CC[C@@]1([C@@H]2O[C@@H]([C@H]3O[C@@](O)(CO)[C@H](C)C[C@@H]3C)C[C@@H]2C)CC[C@H]([C@]2(C)CC[C@]3(C[C@H](O)[C@@H](C)[C@@H]([C@@H](C)[C@@H](OC)[C@H](C)C(=O)O)O3)O2)O1 [Monensin],-0.479
8,CC(C)[C@@H]1NC(=O)[C@H](C)OC(=O)[C@@H](C(C)C)NC(=O)[C@@H](C(C)C)OC(=O)[C@H](C(C)C)NC(=O)[C@H](C)OC(=O)[C@@H](C(C)C)NC(=O)[C@@H](C(C)C)OC(=O)[C@H](C(C)C)NC(=O)[C@H](C)OC(=O)[C@@H](C(C)C)NC(=O)[C@@H](C(C)C)OC1=O [Valinomycin],-0.64

# Source: the supplement of paper PMC7024190
